Measurements reported in PubChem BioAssay AID1671195 (Yale University, 2021).

- Purpose: 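Genes whose knockdown alters LDL uptake in liver cancer cells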 (primary screen)
- System: human Huh7 hepatoma cells
- Reagent: siRNA pool against human genes, 18 nM
- Duration: about 2 to 2.5 days of knockdown, then 8 h LDL uptake
- Challenge: DiI-labelled LDL at 30 µg/ml for 8 h, in lipoprotein-deficient serum medium
- Measurement: 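Fluorescent LDL signal imaged in cells, scaled to the plate median, robust z-score for each replicate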
- Scale: robust z-score: higher = more LDL uptake after knockdown
- Hit rule: 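a gene counts as active if at least two replicate z-scores exceed ±2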
Here is one part, drawn at random, of about 22,000 deposited reagents. In the full data, about 1,510 (6.9%) got an active call. 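Active includes knockdowns raising or lowering LDL uptake; positive z-scores mean more uptake, negative mean less.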

robust z-score, replicate 1	robust z-score, replicate 2	robust z-score, replicate 3	Outcome	gene	PubChem SID
-0.276	-0.207	-0.656	inactive	TUFM (Tu translation elongation factor, mitochondrial)	SID442897381
-0.337	-0.206	-0.0622	inactive	SCLY (selenocysteine lyase)	SID442895744
0.725	3.86	1.4	inactive	PRICKLE4 (prickle planar cell polarity protein 4)	SID442884678
-0.757	-0.495	-0.966	inactive	ULBP2 (UL16 binding protein 2)	SID442900277
-0.235	-0.474	0.641	inactive	UBE2C (ubiquitin conjugating enzyme E2 C)	SID442894072
0.475	-0.0981	0.352	inactive	CCNP (cyclin P)	SID442891804
0.138	-0.516	0.552	inactive	KCNQ1 (potassium voltage-gated channel subfamily Q member 1)	SID442893384
-0.116	-0.00855	-0.313	inactive	SYDE2 (synapse defective Rho GTPase homolog 2)	SID442895210
0.48	0.389	0.117	inactive	SPATA31E1 (SPATA31 subfamily E member 1)	SID442891112
-0.285	-0.515	-0.473	inactive	C8orf74 (chromosome 8 open reading frame 74)	SID442897785
3.18	2.34	2.75	active	LOC642846 (DEAD/H (Asp-Glu-Ala-Asp/His) box polypeptide 11-like)	SID442883512
0.74	0.304	-0.2	inactive	LRRC55 (leucine rich repeat containing 55)	SID442891472
0.712	0.173	-0.228	inactive	HENMT1 (HEN methyltransferase 1)	SID442892017
2.43	2.33	2.73	active	PARL (presenilin associated rhomboid like)	SID442883658
0.827	1.04	1.19	inactive	ZNF331 (zinc finger protein 331)	SID442886967
-0.503	0.265	-0.173	inactive	CFAP54 (cilia and flagella associated protein 54)	SID442895128
-0.368	-0.281	-0.0569	inactive	CFAP54 (cilia and flagella associated protein 54)	SID442896072
0.964	1.23	1.01	inactive	RASAL3 (RAS protein activator like 3)	SID442886771
0.0369	-1.25	-0.415	inactive	RNF183 (ring finger protein 183)	SID442898820
0.268	0.798	0.0681	inactive	LINC01561 (long independently transcribed non-coding RNA 1561)	SID442890720
0.392	-0.385	0.449	inactive	SESN3 (sestrin 3)	SID442892552
0.161	0.0705	0.393	inactive	PPP1CA (protein phosphatase 1 catalytic subunit alpha)	SID442892103
-1.71	-1.92	-1.61	inactive	ILKAP (ILK associated serine/threonine phosphatase)	SID442904607
0.339	1.42	0.525	inactive	CFAP58 (cilia and flagella associated protein 58)	SID442888232
0.277	-0.701	-0.222	inactive	QSOX1 (quiescin sulfhydryl oxidase 1)	SID442895872
1.62	1.54	1.13	inactive	SMR3B (submaxillary gland androgen regulated protein 3B)	SID442885632
0.663	0.498	0.515	inactive	THBD (thrombomodulin)	SID442889442
1.43	1.79	1.54	inactive	E2F1 (E2F transcription factor 1)	SID442885271
-0.111	-0.109	-0.369	inactive	CDCA2 (cell division cycle associated 2)	SID442895694
-0.352	-1.11	0.511	inactive	SRP9 (signal recognition particle 9)	SID442896834
0.802	0.809	1.4	inactive	PTPN1 (protein tyrosine phosphatase non-receptor type 1)	SID442887020
-0.647	-0.799	-0.76	inactive	ZNF510 (zinc finger protein 510)	SID442900252
-0.081	-0.807	-0.683	inactive	ADGRB2 (adhesion G protein-coupled receptor B2)	SID442898655
0.897	1.68	1.86	inactive	CFAP91 (cilia and flagella associated protein 91)	SID442885526
-0.459	0.26	-0.622	inactive	CMPK1 (cytidine/uridine monophosphate kinase 1)	SID442896443
2.19	1.26	1.47	inactive	MX2 (MX dynamin like GTPase 2)	SID442885173
-0.603	-0.567	0.126	inactive	OSM (oncostatin M)	SID442897099

The list goes on (2 carried over from the part before).
robust z-score, replicate 1	robust z-score, replicate 2	robust z-score, replicate 3	Outcome	gene	PubChem SID
2.19	1.26	1.47	inactive	MX2 (MX dynamin like GTPase 2)	SID442885173
-0.603	-0.567	0.126	inactive	OSM (oncostatin M)	SID442897099
-1.1	-1.23	-1.05	inactive	LOC440158 (retired record)	SID442902692
-0.94	-0.11	-0.101	inactive	SNRNP27 (small nuclear ribonucleoprotein U4/U6.U5 subunit 27)	SID442897424
1.86	1.41	1.62	inactive	LOC440203 (retired record)	SID442885195
1.05	0.862	-0.57	inactive	STC1 (stanniocalcin 1)	SID442890225
0.349	-0.244	-0.0883	inactive	LOC440598 (retired record)	SID442893835
0.0696	0.0778	0.633	inactive	SLC39A1	SID442891648
-0.219	0.373	-0.00108	inactive	CLIP1 (CAP-Gly domain containing linker protein 1)	SID442893431
1.54	1.32	1.66	inactive	NUP54 (nucleoporin 54)	SID442885458
-0.994	-1.06	-0.587	inactive	ARHGAP28 (Rho GTPase activating protein 28)	SID442901311
-1.24	-0.458	1.67	inactive	HCG9 (HLA complex group 9)	SID442893954
-0.378	0.233	-1.29	inactive	SEC23IP (SEC23 interacting protein)	SID442898243
-0.273	0.03	-0.219	inactive	SRSF10 (serine and arginine rich splicing factor 10)	SID442895291
-0.192	-0.22	-0.496	inactive	PPM1A (protein phosphatase, Mg2+/Mn2+ dependent 1A)	SID442896704
2.8	1.84	0.864	inactive	LY86 (lymphocyte antigen 86)	SID442884852
-1.03	-0.0142	-0.705	inactive	MAGEA4 (MAGE family member A4)	SID442899139
-0.326	-0.68	0.246	inactive	GPR161 (G protein-coupled receptor 161)	SID442896259
-0.916	-0.779	-0.602	inactive	SPAG9 (sperm associated antigen 9)	SID442900478
-0.704	0.00425	-0.142	inactive	TCHHL1 (trichohyalin like 1)	SID442896505
-0.51	-1.6	-0.175	inactive	PCNT (pericentrin)	SID442900460
0.323	-0.308	1.15	inactive	GLE1 (GLE1 RNA export mediator)	SID442890643
-0.785	-0.913	-0.616	inactive	LINC00926 (long independently transcribed non-coding RNA 926)	SID442900524
-0.556	-0.625	0.412	inactive	LOC401732 (retired record)	SID442896285
0.368	-0.279	-0.96	inactive	MAP6 (microtubule associated protein 6)	SID442896590
0.377	0.976	1.02	inactive	KCNK12 (potassium two pore domain channel subfamily K member 12)	SID442888037
0.962	0.614	0.833	inactive	CLTB (clathrin light chain B)	SID442887981
1.24	0.891	1.23	inactive	NDUFAF8 (NADH:ubiquinone oxidoreductase complex assembly factor 8)	SID442886572
-0.36	-0.488	-0.551	inactive	PRDM14 (PR/SET domain 14)	SID442898147
-0.0145	0.0867	0.545	inactive	URB1-DT (URB1 divergent transcript)	SID442892117
0.734	0.942	0.836	inactive	RTL10 (retrotransposon Gag like 10)	SID442887803
1.68	1.22	0.658	inactive	NOL3 (nucleolar protein 3)	SID442886342
-2.07	-1.89	-1.47	inactive	HDIP1 (HDAC and MIER1 interacting protein 1)	SID442904699
